Drawing on article PMC8066076, this text covers binding for two molecules.

The target in test [1] is T1, PIE1 N-terminal (1-491 residues), nLuc fusion (Arabidopsis thaliana) (UniProt Q7X9V2).
T1 sequence: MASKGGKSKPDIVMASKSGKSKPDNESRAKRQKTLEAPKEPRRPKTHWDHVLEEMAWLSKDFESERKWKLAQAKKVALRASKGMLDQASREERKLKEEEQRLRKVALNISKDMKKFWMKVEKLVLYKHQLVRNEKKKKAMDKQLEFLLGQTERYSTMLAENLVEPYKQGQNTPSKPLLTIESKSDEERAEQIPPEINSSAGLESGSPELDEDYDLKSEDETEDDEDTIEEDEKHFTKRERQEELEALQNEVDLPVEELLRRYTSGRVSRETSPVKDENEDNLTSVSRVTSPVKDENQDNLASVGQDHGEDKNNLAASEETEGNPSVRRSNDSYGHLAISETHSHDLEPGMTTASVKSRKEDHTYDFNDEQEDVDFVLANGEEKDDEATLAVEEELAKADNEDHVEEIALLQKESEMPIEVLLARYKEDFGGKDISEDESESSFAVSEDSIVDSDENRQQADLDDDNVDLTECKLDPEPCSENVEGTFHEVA
The test is described as follows: split reporter; split luciferase complementation imaging (LCI) in N. benthamiana leaves; AtARP4-cLuc and PIE1 fragment-nLuc co-infiltrated by Agrobacterium; luciferase activity imaged 48 h post-infiltration.

In test [2] the target is PIE1 C-terminal (492-2055 residues), nLuc fusion (Arabidopsis thaliana) (UniProt Q7X9V2). Described as above.
For test [3], the target named is T2, PIE1-N terminal fragment, yeast two-hybrid fusion (Arabidopsis thaliana) (UniProt Q7X9V2).
T2 sequence: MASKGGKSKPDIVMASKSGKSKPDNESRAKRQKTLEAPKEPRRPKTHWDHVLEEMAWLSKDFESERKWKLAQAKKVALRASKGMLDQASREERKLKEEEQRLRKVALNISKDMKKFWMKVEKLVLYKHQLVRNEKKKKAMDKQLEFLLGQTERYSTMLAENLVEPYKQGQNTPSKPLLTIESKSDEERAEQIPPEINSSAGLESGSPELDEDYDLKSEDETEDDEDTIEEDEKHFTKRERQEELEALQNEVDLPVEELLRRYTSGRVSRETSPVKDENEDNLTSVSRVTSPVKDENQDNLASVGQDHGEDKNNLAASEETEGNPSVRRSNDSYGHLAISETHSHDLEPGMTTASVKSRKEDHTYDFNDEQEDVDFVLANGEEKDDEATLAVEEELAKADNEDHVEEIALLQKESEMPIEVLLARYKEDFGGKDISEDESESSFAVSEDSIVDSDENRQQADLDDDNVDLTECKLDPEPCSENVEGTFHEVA
The test is described as follows: two-hybrid; yeast two-hybrid in S. cerevisiae AH109; pGADT7-AD and pGBKT7-BD fusions; growth on SD-Leu/Trp/His with 1 mM 3'AT, 30 °C, 3 d.

No constants are given. Whether binding was seen depends on the method and setting. For part of these data: Binding seen in cells or lysates may run through a third protein. Some entries that bind do so weakly or less than the wild type. Tags and fused reporters may be left off the sequences shown.

B1: Arabidopsis thaliana actin-related protein 4 (AtARP4), cLuc fusion (protein, UniProt Q84M92 1-441)
chain: MYGGDEVSAIVVDLGSHTCKAGYAGEDAPKAVFPSVIGAVDGVEAMDVDVDSTKTNSNSEDSKTESEKEKSKRKLYVGSQAMSYRRDHMEVLSPIKDGIVSDWDLVDNIWEHAFKSCLMIDPTEHPMLLAEPPLNTQQQREKAAELMFEKYKVPALFMAKNPVLTSFATGRATSLVVDCGGGSTTISPVHDGYVLQKAVVSSPLGGEFLTDCLLKSLESKGIKIRPRYSFKRKEVRAGEFQVEDVDIPDTTESYKLFCQRMIVGDIKDSICRVPDTPYDDKSYSNIPTTSYELPDGQTLEIGADRFKVPDVMFNPSIVQTIPGMEKYAEMIPSVRGLPHMVMESINKCDVDIRRELYSSILLAGGTSSMQQLKERLEKDLIEESPHSARVKVLASGNTTERRFSVWIGGSILASLGSFQQMWFSKSEYEEHGASYIQRKCP
For B1, the binding result was “binds” in test [1] and “no binding” in test [2].

B2: AtARP4, full-length, yeast two-hybrid fusion (protein, UniProt Q84M92 1-441)
chain: MYGGDEVSAIVVDLGSHTCKAGYAGEDAPKAVFPSVIGAVDGVEAMDVDVDSTKTNSNSEDSKTESEKEKSKRKLYVGSQAMSYRRDHMEVLSPIKDGIVSDWDLVDNIWEHAFKSCLMIDPTEHPMLLAEPPLNTQQQREKAAELMFEKYKVPALFMAKNPVLTSFATGRATSLVVDCGGGSTTISPVHDGYVLQKAVVSSPLGGEFLTDCLLKSLESKGIKIRPRYSFKRKEVRAGEFQVEDVDIPDTTESYKLFCQRMIVGDIKDSICRVPDTPYDDKSYSNIPTTSYELPDGQTLEIGADRFKVPDVMFNPSIVQTIPGMEKYAEMIPSVRGLPHMVMESINKCDVDIRRELYSSILLAGGTSSMQQLKERLEKDLIEESPHSARVKVLASGNTTERRFSVWIGGSILASLGSFQQMWFSKSEYEEHGASYIQRKCP
As for B2, the binding entry in test [3] was “binds”.
